Results deposited as PubChem BioAssay AID504764 (Drosophila RNAi Screening Center, 2011)
Screen: 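Genome-wide screen for regulators of Notch-driven gene expression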 (primary screen). Cells: Drosophila Kc167 cells. Knock-down reagent: long dsRNA against Drosophila genes. Time to read-out: about 5 days (4 days dsRNA, then 24 h after transfection). Challenge: transfection of constitutively active membrane-tethered Notch lacking the extracellular domain, read 24 h later. Measurement: 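Firefly luciferase from an E(spl)m3 reporter with active Notch, plus control-promoter and uninduced reporter wells for normalisation; unnormalised counts, duplicate wells a and b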. Scale: induced reporter light, run 1, well a and induced reporter light, run 1, well b: higher = more light from the Notch target reporter with active Notch; control promoter light, run 1, well a and control promoter light, run 1, well b: higher = more light from the viral control promoter (cell number, transfection, viability); uninduced reporter light, run 1, well a: higher = more light from the Notch target reporter without active Notch. Rule for the call: 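Wells with low control signal or poorly matching duplicates excluded; duplicates averaged; per source plate, z beyond ±2 for induced/control log2 ratio or beyond ±1.8 for induced/uninduced marks a hit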. Calls: active = modifier hit (raised or lowered Notch signal); inactive = not a hit.
The deposit covers about 22,000 reagents; this is an unselected part of those with a known target gene and a result. Of all reagents, 403 (1.9%) were called active. 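Unnormalised raw counts per well; ratio z-scores behind the hit calls and whether each hit raises or lowers signal are not deposited.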 No sequences are given here. Not given: the amount of reagent.

induced reporter light, run 1, well a	induced reporter light, run 1, well b	control promoter light, run 1, well a	control promoter light, run 1, well b	uninduced reporter light, run 1, well a	call	target gene	DRSC id
2.56e5	2.20e5	1.79e5	1.81e5	16225	inactive	Sidpn	DRSC02056
36965	29080	30170	23640	2800	inactive	dia	DRSC03519
1.42e5	98215	1.88e5	1.66e5	9845	inactive	CG16976 (retired record)	DRSC08499
1.24e5	1.26e5	1.14e5	51715	11900	inactive	CG11537	DRSC08200
1.56e5	1.16e5	1.20e5	91215	9425	inactive	Dlip2	DRSC12346
54490	58330	58210	59395	6505	inactive	SNRPG	DRSC20207
2.08e5	1.92e5	1.83e5	2.65e5	13560	inactive	CG42795	DRSC12772
1.12e5	85800	89605	66335	6528	inactive	CG42795	DRSC15533
97400	1.07e5	1.28e5	1.47e5	10670	inactive	CG14480	DRSC06452
2.13e5	2.58e5	1.27e5	1.16e5	17155	active	CarT	DRSC03196

Entries above whose gene name starts with S or s:
induced reporter light, run 1, well a	induced reporter light, run 1, well b	control promoter light, run 1, well a	control promoter light, run 1, well b	uninduced reporter light, run 1, well a	call	target gene	DRSC id
2.56e5	2.20e5	1.79e5	1.81e5	16225	inactive	Sidpn	DRSC02056
54490	58330	58210	59395	6505	inactive	SNRPG	DRSC20207

More results:
induced reporter light, run 1, well a	induced reporter light, run 1, well b	control promoter light, run 1, well a	control promoter light, run 1, well b	uninduced reporter light, run 1, well a	call	target gene	DRSC id
1.44e5	1.31e5	92315	98155	11000	inactive	CG3764	DRSC10375
2.11e5	1.90e5	2.69e5	2.88e5	15610	inactive	bap	DRSC16908
1.29e5	1.15e5	1.07e5	66585	9165	inactive	Sol1	DRSC15263
97100	86440	87540	64970	5990	inactive	Sol1	DRSC15271
83125	83055	74325	64105	5195	inactive	Sol1	DRSC15681
54805	48450	90645	1.18e5	6020	inactive	CG5726	DRSC06946
1.86e5	1.68e5	1.78e5	1.83e5	14175	inactive	CG4497	DRSC02754
56665	92255	85235	96165	5785	inactive	Ccp84Af	DRSC12591
					inactive	CG31715	DRSC21607
93315	1.04e5	1.08e5	1.14e5	7375	inactive	wds	DRSC18852
